Measured values: the supplement of paper PMC10849652
The list shows a part of the results.

Amino acid sequences for entries named in this document (tags omitted). A change or cut given only in a name is not applied to a line headed by its entry.
UniProt Q6P587: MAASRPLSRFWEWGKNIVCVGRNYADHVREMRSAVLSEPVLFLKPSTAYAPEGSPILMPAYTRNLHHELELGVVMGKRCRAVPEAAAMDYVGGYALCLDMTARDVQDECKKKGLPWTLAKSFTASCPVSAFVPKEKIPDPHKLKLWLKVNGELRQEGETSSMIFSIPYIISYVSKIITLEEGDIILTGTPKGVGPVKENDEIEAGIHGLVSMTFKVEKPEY
UniProt A0FGR8: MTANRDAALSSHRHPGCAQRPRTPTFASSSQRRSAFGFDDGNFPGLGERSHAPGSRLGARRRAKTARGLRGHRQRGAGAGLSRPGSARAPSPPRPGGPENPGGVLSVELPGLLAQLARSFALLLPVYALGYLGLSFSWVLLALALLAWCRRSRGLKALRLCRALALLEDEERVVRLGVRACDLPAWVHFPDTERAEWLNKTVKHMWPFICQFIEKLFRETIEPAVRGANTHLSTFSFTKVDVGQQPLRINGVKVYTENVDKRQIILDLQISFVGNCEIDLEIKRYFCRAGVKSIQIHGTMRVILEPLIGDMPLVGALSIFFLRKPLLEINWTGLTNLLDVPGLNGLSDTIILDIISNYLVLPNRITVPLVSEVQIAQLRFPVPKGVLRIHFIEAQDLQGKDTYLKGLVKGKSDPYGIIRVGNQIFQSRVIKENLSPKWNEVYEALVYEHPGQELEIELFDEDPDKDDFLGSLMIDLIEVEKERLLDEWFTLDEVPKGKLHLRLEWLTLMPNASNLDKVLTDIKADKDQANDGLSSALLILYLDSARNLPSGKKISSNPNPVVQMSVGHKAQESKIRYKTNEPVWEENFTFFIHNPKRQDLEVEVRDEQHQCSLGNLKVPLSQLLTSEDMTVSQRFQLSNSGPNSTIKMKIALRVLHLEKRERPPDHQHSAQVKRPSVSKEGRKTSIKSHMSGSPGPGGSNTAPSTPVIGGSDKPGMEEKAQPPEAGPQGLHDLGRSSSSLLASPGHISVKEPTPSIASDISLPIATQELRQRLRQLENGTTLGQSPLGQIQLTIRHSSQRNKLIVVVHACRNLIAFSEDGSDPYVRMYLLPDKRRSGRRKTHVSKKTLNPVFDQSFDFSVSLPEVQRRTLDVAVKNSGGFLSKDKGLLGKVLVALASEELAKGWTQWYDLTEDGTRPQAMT
UniProt Q9UBC2: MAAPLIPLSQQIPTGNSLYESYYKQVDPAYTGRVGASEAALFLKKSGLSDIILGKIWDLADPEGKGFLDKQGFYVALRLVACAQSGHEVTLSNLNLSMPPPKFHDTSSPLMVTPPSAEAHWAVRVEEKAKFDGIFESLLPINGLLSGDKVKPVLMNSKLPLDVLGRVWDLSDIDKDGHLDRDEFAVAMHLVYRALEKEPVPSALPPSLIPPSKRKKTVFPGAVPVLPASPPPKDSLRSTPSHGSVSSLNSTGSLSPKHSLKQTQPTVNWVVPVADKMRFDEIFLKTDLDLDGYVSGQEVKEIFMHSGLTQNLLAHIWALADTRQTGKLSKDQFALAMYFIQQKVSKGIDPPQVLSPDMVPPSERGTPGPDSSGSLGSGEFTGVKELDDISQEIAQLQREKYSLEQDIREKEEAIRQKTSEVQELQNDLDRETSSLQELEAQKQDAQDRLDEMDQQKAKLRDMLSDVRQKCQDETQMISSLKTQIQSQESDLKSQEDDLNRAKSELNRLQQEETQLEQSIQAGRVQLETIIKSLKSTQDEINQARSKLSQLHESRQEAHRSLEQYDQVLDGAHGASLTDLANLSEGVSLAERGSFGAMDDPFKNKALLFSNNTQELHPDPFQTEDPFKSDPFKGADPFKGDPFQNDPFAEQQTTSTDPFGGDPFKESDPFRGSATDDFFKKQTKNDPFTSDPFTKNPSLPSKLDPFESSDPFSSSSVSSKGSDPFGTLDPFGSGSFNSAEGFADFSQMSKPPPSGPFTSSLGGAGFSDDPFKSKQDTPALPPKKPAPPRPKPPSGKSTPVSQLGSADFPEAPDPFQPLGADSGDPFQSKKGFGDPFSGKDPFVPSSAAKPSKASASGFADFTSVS
UniProt Q6IPR1: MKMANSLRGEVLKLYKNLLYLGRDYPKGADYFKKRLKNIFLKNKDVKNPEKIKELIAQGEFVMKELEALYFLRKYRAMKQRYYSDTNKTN
UniProt P16930: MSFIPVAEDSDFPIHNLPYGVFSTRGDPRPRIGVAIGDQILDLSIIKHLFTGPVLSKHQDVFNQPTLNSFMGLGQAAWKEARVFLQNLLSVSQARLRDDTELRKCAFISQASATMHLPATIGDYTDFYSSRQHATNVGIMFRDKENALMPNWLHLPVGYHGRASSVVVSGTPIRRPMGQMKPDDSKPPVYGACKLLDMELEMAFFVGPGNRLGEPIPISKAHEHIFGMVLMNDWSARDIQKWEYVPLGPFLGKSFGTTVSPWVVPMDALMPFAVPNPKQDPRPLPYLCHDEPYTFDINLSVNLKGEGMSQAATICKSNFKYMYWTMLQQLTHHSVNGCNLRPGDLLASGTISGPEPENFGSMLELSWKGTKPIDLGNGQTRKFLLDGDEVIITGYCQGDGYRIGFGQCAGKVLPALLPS
UniProt O60645: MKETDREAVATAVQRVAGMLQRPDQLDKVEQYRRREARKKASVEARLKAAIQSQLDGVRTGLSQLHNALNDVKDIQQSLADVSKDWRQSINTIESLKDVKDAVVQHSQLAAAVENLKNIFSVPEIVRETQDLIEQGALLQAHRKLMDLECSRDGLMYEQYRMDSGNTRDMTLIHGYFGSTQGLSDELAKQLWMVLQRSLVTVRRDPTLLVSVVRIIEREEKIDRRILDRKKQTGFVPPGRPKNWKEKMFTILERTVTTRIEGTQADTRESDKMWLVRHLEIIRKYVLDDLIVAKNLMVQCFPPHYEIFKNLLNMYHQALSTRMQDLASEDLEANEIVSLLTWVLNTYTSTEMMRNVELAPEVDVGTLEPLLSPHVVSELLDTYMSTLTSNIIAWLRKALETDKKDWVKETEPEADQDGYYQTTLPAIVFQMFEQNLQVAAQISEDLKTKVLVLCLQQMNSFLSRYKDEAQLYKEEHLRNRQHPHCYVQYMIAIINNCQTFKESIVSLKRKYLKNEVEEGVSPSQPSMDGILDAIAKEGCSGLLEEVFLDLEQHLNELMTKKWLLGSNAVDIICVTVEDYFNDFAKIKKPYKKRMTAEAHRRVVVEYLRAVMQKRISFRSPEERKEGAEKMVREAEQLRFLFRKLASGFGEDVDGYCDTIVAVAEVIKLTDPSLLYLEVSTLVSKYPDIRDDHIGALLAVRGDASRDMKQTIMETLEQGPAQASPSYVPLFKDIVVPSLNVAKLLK
UniProt P19447: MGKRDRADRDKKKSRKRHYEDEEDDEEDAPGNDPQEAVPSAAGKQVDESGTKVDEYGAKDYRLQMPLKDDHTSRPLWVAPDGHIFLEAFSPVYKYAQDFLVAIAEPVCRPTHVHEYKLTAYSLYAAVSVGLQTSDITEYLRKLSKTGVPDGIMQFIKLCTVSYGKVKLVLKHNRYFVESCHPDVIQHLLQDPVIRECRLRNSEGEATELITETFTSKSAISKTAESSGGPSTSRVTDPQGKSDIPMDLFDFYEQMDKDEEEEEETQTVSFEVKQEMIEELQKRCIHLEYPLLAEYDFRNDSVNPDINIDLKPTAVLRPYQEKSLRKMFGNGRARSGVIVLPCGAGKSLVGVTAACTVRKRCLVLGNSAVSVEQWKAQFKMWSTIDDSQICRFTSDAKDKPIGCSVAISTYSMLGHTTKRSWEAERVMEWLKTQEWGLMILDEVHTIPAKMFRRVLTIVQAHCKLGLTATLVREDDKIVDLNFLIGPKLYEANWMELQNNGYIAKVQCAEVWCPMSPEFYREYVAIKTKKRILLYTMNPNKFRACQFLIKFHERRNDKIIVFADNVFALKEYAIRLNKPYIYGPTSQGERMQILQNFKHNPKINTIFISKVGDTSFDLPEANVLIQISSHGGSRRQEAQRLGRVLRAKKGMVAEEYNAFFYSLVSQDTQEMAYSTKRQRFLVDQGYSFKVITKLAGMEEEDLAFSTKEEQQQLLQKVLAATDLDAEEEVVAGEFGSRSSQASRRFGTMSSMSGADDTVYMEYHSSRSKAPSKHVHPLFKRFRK
UniProt P10768: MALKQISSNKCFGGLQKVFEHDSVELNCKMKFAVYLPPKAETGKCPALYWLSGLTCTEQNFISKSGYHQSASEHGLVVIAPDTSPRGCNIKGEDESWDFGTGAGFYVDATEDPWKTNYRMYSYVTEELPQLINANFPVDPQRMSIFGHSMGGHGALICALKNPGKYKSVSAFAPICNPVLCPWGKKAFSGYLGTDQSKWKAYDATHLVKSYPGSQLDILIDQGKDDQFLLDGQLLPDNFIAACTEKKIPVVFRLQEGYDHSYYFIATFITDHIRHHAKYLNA
UniProt Q93063: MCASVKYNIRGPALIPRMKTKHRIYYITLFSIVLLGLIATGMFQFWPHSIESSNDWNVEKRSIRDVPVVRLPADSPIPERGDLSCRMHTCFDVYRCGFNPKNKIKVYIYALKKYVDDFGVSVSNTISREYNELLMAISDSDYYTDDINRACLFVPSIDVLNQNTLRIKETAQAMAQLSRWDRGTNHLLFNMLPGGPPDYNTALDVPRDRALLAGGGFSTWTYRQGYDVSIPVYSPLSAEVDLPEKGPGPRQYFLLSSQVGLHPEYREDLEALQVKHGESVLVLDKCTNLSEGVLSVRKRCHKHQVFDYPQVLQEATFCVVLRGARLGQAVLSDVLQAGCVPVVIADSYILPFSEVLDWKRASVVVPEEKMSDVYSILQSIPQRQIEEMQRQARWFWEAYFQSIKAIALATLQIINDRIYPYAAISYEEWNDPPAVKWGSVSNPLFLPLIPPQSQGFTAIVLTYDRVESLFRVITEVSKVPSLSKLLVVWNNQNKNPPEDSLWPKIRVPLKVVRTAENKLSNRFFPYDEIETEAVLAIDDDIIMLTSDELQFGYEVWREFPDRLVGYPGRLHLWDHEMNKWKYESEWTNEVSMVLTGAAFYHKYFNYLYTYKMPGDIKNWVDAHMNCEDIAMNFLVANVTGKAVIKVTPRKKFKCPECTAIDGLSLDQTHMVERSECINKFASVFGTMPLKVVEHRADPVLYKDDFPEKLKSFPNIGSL
UniProt Q9NZB2: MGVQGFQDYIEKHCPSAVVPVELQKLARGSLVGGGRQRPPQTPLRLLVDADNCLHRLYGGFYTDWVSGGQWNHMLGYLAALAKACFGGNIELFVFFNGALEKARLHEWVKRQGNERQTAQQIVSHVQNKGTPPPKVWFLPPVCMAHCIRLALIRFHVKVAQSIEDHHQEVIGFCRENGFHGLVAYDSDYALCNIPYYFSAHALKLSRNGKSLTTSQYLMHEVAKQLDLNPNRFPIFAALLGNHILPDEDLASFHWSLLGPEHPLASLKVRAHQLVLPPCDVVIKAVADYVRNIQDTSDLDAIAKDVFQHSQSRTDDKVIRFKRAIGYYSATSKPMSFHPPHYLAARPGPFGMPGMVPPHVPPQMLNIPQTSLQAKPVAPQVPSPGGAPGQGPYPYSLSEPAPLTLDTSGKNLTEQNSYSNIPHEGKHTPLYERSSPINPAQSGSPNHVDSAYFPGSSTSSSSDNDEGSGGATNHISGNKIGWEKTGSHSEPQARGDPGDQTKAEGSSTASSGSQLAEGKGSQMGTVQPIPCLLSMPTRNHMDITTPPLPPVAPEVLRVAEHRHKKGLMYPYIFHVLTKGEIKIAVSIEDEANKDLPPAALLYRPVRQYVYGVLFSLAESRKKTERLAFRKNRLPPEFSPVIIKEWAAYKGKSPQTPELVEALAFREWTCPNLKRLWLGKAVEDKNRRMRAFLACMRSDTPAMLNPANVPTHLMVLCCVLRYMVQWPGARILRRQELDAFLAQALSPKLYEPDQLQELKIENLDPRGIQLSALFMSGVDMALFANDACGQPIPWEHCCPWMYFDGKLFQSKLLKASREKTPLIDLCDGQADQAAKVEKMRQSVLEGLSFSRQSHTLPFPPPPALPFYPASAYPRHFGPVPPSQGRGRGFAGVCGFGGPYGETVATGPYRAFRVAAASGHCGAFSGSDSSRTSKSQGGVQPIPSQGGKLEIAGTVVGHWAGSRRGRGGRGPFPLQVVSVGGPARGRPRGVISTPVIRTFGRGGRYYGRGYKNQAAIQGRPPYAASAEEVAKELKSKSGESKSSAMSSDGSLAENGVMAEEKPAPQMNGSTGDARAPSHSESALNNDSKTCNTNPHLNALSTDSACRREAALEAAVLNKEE
UniProt Q13868, whole entry, looked up: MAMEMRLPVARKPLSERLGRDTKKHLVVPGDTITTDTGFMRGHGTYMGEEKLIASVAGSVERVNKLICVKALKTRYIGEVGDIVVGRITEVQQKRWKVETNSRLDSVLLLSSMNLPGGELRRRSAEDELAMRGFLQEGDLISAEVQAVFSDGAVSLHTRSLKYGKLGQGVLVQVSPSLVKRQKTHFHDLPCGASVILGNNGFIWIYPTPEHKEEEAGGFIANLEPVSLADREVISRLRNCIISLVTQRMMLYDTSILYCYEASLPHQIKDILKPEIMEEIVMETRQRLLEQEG

How the values were obtained:
Assay in all cases: log2 fold change, soluble protein after heating vs DMSO (PISA); higher = thermal stabilisation; K562 cells, 10 uM, 30 min; active = over 0.2 and 3.5 SD of the protein, either way, in both replicates (recomputed)
[1] = compound: CS(=O)(=O)c1ccc(-c2cnc(N)c(C(=O)Nc3ccccc3)n2)cc1
In short: (§1)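 For each measurement, 10 μM compound was applied for 30 min to K562 cells at 2×10^6 cells/mL. Aliquots were heated for 3 min across 48°C-58°C, pooled, and extracted in PBS with 0.5% NP-40 at 4°C; the supernatant after 21,000xg for 90 min was soluble protein. This was quantified by TMTpro 16plex LC-MS/MS with channel sums equalised, and thermal stability was reported relative to control samples from duplicates, on a log2 fold-change scale.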

crizotinib = compound: C[C@@H](Oc1cc(-c2cnn(C3CCNCC3)c2)cnc1N)c1c(Cl)ccc(F)c1Cl [crizotinib]
In short: as §1

[2] = compound: C[C@@H]1COCCN1C2=NC(=NC(=C2)C3(CC3)S(=O)(=O)C)C4=C5C=CNC5=CC=C4
In short: as §1

[3] = compound: C[C@H](C1=CC=C(C=C1)C(=O)NC2=C3C=CNC3=NC=C2)N
In short: as §1

duvelisib = compound: C[C@H](Nc1ncnc2nc[nH]c12)c1cc2cccc(Cl)c2c(=O)n1-c1ccccc1 [duvelisib]
In short: as §1

gandotinib = compound: Cc1cc(Nc2cc(CN3CCOCC3)c3nc(C)c(Cc4ccc(Cl)cc4F)n3n2)n[nH]1 [gandotinib]
In short: as §1

tozasertib = compound: Cc1cc(Nc2cc(N3CCN(C)CC3)nc(Sc3ccc(NC(=O)C4CC4)cc3)n2)n[nH]1 [tozasertib]
In short: as §1

[4] = compound: Cc1cc(SCc2sc(-c3ccc(C(F)(F)F)cc3)nc2C)ccc1OCC(=O)O
In short: as §1

doramapimod = compound: Cc1ccc(-n2nc(C(C)(C)C)cc2NC(=O)Nc2ccc(OCCN3CCOCC3)c3ccccc23)cc1 [doramapimod]
In short: as §1

ispinesib = compound: Cc1ccc(C(=O)N(CCCN)[C@@H](c2nc3cc(Cl)ccc3c(=O)n2Cc2ccccc2)C(C)C)cc1 [ispinesib]
In short: as §1

bafetinib = compound: Cc1ccc(NC(=O)c2ccc(CN3CC[C@H](N(C)C)C3)c(C(F)(F)F)c2)cc1Nc1nccc(-c2cncnc2)n1 [bafetinib]
In short: as §1

[5] = compound: Cc1cccc(CC(=O)N2CCc3c2ccc(-c2cn(C)c4ncnc(N)c24)c3F)n1
In short: as §1

nilotinib = compound: Cc1cn(-c2cc(NC(=O)c3ccc(C)c(Nc4nccc(-c5cccnc5)n4)c3)cc(C(F)(F)F)c2)cn1 [nilotinib]
In short: as §1

[6] = compound: Cc1nc(Nc2n[nH]c3c2CN(C(=O)N[C@H](CN(C)C)c2ccccc2)C3(C)C)c2sccc2n1
In short: as §1

dasatinib = compound: Cc1nc(Nc2ncc(C(=O)Nc3c(C)cccc3Cl)s2)cc(N2CCN(CCO)CC2)n1 [dasatinib]
In short: as §1

[7] = compound: Cc1ncc(-c2ccnc(Nc3ccc(S(C)(=O)=O)cc3)n2)n1C(C)C
In short: as §1

[8] = compound: Cn1cc(-c2ccc3c(c2)CCN3C(=O)Cc2cccc(C(F)(F)F)c2)c2c(N)ncnc21
In short: as §1

[9] = compound: Cn1cc(-c2ccc3nnc(C(F)(F)c4ccc5ncccc5c4)n3n2)cn1
In short: as §1

tipifarnib = compound: Cn1cncc1[C@@](N)(c1ccc(Cl)cc1)c1ccc2c(c1)c(-c1cccc(Cl)c1)cc(=O)n2C [tipifarnib]
In short: as §1

mubritinib = compound: FC(F)(F)c1ccc(/C=C/c2nc(COc3ccc(CCCCn4ccnn4)cc3)co2)cc1 [mubritinib]
In short: as §1

Measured: log2 fold change

FAHD1 (UniProt Q6P587)
inactive: [1] 0.027 | crizotinib 0.05 | [2] 0.014 | [3] -0.012 | duvelisib 0.045 | gandotinib 0.037 | tozasertib 0.003 | [4] -0.018 | doramapimod 0.032 | ispinesib 0.004 | bafetinib -0.04 | [5] 0.029 | nilotinib 0.004 | [6] -0.006 | dasatinib 0.033 | [7] -0.014 | [8] 0.031 | [9] -0.006 | tipifarnib 0.032 | mubritinib 0.025

EXOSC6 (UniProt Q5RKV6)
inactive: [1] -0.058 | crizotinib 0.048 | [2] 0.021 | [3] -0.061 | duvelisib -0.018 | gandotinib -0.008 | tozasertib 0.025 | [4] -0.002 | doramapimod 0.061 | ispinesib 0.024 | bafetinib -0.012 | [5] -0.043 | nilotinib 0.024 | [6] 0.03 | dasatinib 0.034 | [7] -0.047 | [8] -0.007 | [9] -0.005 | tipifarnib -0.033 | mubritinib 0.032

ESYT2 isoform 2 (UniProt A0FGR8)
inactive: [1] 0.049 | crizotinib 0.002 | [2] 0.015 | [3] -0.025 | duvelisib 0.089 | gandotinib -0.021 | tozasertib -0.011 | [4] 0.05 | doramapimod -0.024 | ispinesib -0.104 | bafetinib -0.059 | [5] -0.023 | nilotinib 0.023 | [6] -0.073 | dasatinib -0.022 | [7] -0.004 | [8] 0.023 | [9] 0.04 | tipifarnib 0.048 | mubritinib 0.018

EPS15L1 isoform 2 (UniProt Q9UBC2)
inactive: [1] 0.019 | crizotinib -0.022 | [2] -0.039 | [3] 0.01 | duvelisib 0 | gandotinib -0.015 | tozasertib 0.09 | [4] 0.034 | doramapimod 0 | ispinesib -0.01 | bafetinib -0.045 | [5] 0.066 | nilotinib -0.087 | [6] 0.124 | dasatinib -0.046 | [7] 0.045 | [8] -0.061 | [9] 0.006 | tipifarnib -0.081 | mubritinib 0.049

ETFRF1 (UniProt Q6IPR1)
inactive: [1] 0.104 | crizotinib 0.113 | [2] 0.035 | [3] -0.083 | duvelisib -0.022 | gandotinib 0.027 | tozasertib 0.074 | [4] -0.131 | doramapimod -0.053 | ispinesib 0.024 | bafetinib -0.079 | [5] -0.114 | nilotinib -0.111 | [6] -0.101 | dasatinib 0.077 | [7] -0.182 | [8] 0.104 | [9] 0.088 | tipifarnib 0.057 | mubritinib 0.082

FAH isoform 2 (UniProt P16930)
inactive: [1] -0.083 | crizotinib -0.068 | [2] 0.116 | [3] 0.054 | duvelisib 0.091 | gandotinib -0.493 | tozasertib -0.056 | [4] -0.079 | doramapimod 0.067 | ispinesib -0.126 | bafetinib 0.082 | [5] -0.014 | nilotinib -0.02 | [6] 0.032 | dasatinib 0.118 | [7] -0.073 | [8] 0.03 | [9] 0.028 | tipifarnib -0.064 | mubritinib 0.058

EXOC3 (UniProt O60645)
inactive: [1] 0.037 | crizotinib -0.135 | [2] 0 | [3] 0.117 | duvelisib -0.008 | gandotinib -0.22 | tozasertib -0.049 | [4] 0.098 | doramapimod 0.032 | ispinesib -0.246 | bafetinib -0.001 | [5] 0.105 | nilotinib -0.008 | [6] -0.195 | dasatinib -0.144 | [7] 0.002 | [8] 0.121 | [9] -0.012 | tipifarnib -0.081 | mubritinib 0.047

ERCC3 (UniProt P19447)
inactive: [1] 0.1 | crizotinib 0.148 | [2] -0.186 | [3] 0.042 | duvelisib 0.117 | gandotinib 0.06 | tozasertib -0.094 | [4] 0.017 | doramapimod 0.041 | ispinesib -0.005 | bafetinib 0.062 | [5] -0.071 | nilotinib 0.033 | [6] -0.103 | dasatinib -0.111 | [7] 0.048 | [8] -0.121 | [9] -0.082 | tipifarnib -0.165 | mubritinib -0.009

2 records picked at random from those above:
EPS15L1 isoform 2 (UniProt Q9UBC2)
inactive: [1] 0.019 | crizotinib -0.022 | [2] -0.039 | [3] 0.01 | duvelisib 0 | gandotinib -0.015 | tozasertib 0.09 | [4] 0.034 | doramapimod 0 | ispinesib -0.01 | bafetinib -0.045 | [5] 0.066 | nilotinib -0.087 | [6] 0.124 | dasatinib -0.046 | [7] 0.045 | [8] -0.061 | [9] 0.006 | tipifarnib -0.081 | mubritinib 0.049

EXOSC6 (UniProt Q5RKV6)
inactive: [1] -0.058 | crizotinib 0.048 | [2] 0.021 | [3] -0.061 | duvelisib -0.018 | gandotinib -0.008 | tozasertib 0.025 | [4] -0.002 | doramapimod 0.061 | ispinesib 0.024 | bafetinib -0.012 | [5] -0.043 | nilotinib 0.024 | [6] 0.03 | dasatinib 0.034 | [7] -0.047 | [8] -0.007 | [9] -0.005 | tipifarnib -0.033 | mubritinib 0.032

Continuation:

ESD (UniProt P10768)
inactive: [1] -0.014 | crizotinib 0.041 | [2] 0.038 | [3] -0.056 | duvelisib 0.047 | gandotinib 0.001 | tozasertib -0.009 | [4] -0.002 | doramapimod -0.046 | ispinesib 0.082 | bafetinib -0.025 | [5] 0.01 | nilotinib -0.018 | [6] 0.05 | dasatinib 0.014 | [7] 0.005 | [8] 0.009 | [9] 0.025 | tipifarnib -0.043 | mubritinib 0.013

ERCC4 (UniProt Q92889)
inactive: [1] 0.27 | crizotinib 0.025 | [2] 0.238 | [3] 0.243 | duvelisib 0.166 | gandotinib -0.144 | tozasertib -0.037 | [4] -0.031 | doramapimod 0 | ispinesib -0.134 | bafetinib 0.076 | [5] -0.068 | nilotinib -0.325 | [6] 0.406 | dasatinib 0.128 | [7] 0.092 | [8] 0.057 | [9] -0.051 | tipifarnib -0.038 | mubritinib 0.059

ERLEC1 (UniProt Q96DZ1)
inactive: [1] 0.008 | crizotinib -0.01 | [2] 0.004 | [3] 0.019 | duvelisib -0.011 | gandotinib 0.03 | tozasertib 0.001 | [4] -0.003 | doramapimod 0.015 | ispinesib -0.018 | bafetinib -0.011 | [5] -0.073 | nilotinib -0.01 | [6] -0.019 | dasatinib 0.003 | [7] -0.017 | [8] -0.049 | [9] 0.003 | tipifarnib 0.046 | mubritinib -0.024

EXT2 isoform 3 (UniProt Q93063)
inactive: [1] -0.071 | crizotinib -0.037 | [2] -0.08 | [3] 0.203 | duvelisib -0.019 | gandotinib 0.097 | tozasertib -0.02 | [4] 0.082 | doramapimod 0.122 | ispinesib -0.104 | bafetinib 0.004 | [5] 0.014 | nilotinib -0.086 | [6] 0.076 | dasatinib 0.014 | [7] -0.042 | [8] -0.082 | [9] 0.016 | tipifarnib 0.138 | mubritinib -0.048

ERI3 (UniProt O43414)
inactive: [1] 0.043 | crizotinib -0.071 | [2] 0.064 | [3] -0.042 | duvelisib 0.03 | gandotinib -0.036 | tozasertib -0.04 | [4] 0.024 | doramapimod -0.032 | ispinesib 0.027 | bafetinib 0.014 | [5] -0.004 | nilotinib -0.016 | [6] 0.032 | dasatinib -0.015 | [7] -0.01 | [8] 0.062 | [9] 0.041 | tipifarnib 0.042 | mubritinib 0.064

FAM120A isoform 6 (UniProt Q9NZB2)
inactive: [1] -0.092 | crizotinib 0.015 | [2] -0.242 | [3] 0.208 | duvelisib -0.117 | gandotinib 0.102 | tozasertib 0.019 | [4] -0.017 | doramapimod 0.052 | ispinesib -0.135 | bafetinib 0.055 | [5] -0.021 | nilotinib 0.023 | [6] 0.002 | dasatinib 0.118 | [7] 0.101 | [8] -0.208 | [9] -0.083 | tipifarnib 0.137 | mubritinib -0.054

ETFB (UniProt P38117)
inactive: [1] 0.047 | crizotinib 0.014 | [2] 0.015 | [3] -0.05 | duvelisib 0.004 | gandotinib 0.017 | tozasertib -0.046 | [4] -0.061 | doramapimod -0.009 | ispinesib 0.015 | bafetinib -0.017 | [5] -0.03 | nilotinib 0.04 | [6] 0.001 | dasatinib 0 | [7] -0.019 | [8] 0.022 | [9] 0.012 | tipifarnib 0.055 | mubritinib 0.027

EXOSC2 (UniProt Q13868)
inactive: [1] -0.064 | crizotinib 0.042 | [2] 0.003 | [3] 0.008 | duvelisib 0.018 | gandotinib -0.047 | tozasertib -0.019 | [4] -0.047 | doramapimod 0 | ispinesib 0.003 | bafetinib 0.012 | [5] -0.036 | nilotinib -0.002 | [6] 0.045 | dasatinib 0.086 | [7] -0.023 | [8] -0.018 | [9] 0.008 | tipifarnib 0.016 | mubritinib 0.013
